According to paper doi:10.1101/266833:
Results are given in words; binding and its absence hold for the method and conditions named. In cells and extracts the contact can be indirect. Here binding means that the protein was enriched with, or labelled near, the bait; the list need not be complete. For part of these data: No binding means not detected with the bait. One block for each binder: values may come before it.

Tests used:
[1] = biological target: T1, TAP-Upf1-CH (2-208) (S. cerevisiae) (UniProt P30771); assay: condition: only with RNase A and RNase T1 treatment
T1 sequence: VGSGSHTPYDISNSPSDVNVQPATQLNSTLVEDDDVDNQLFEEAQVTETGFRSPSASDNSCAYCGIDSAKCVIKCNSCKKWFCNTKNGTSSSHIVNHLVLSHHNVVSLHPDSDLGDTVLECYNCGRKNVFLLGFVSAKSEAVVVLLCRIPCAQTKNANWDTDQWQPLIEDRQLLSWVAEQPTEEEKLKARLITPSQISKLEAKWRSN

[2] = biological target: T2, TAP-Upf1-CH-HD (2-853) (S. cerevisiae) (UniProt P30771); assay: affinity purification with mass spectrometry
T2 sequence: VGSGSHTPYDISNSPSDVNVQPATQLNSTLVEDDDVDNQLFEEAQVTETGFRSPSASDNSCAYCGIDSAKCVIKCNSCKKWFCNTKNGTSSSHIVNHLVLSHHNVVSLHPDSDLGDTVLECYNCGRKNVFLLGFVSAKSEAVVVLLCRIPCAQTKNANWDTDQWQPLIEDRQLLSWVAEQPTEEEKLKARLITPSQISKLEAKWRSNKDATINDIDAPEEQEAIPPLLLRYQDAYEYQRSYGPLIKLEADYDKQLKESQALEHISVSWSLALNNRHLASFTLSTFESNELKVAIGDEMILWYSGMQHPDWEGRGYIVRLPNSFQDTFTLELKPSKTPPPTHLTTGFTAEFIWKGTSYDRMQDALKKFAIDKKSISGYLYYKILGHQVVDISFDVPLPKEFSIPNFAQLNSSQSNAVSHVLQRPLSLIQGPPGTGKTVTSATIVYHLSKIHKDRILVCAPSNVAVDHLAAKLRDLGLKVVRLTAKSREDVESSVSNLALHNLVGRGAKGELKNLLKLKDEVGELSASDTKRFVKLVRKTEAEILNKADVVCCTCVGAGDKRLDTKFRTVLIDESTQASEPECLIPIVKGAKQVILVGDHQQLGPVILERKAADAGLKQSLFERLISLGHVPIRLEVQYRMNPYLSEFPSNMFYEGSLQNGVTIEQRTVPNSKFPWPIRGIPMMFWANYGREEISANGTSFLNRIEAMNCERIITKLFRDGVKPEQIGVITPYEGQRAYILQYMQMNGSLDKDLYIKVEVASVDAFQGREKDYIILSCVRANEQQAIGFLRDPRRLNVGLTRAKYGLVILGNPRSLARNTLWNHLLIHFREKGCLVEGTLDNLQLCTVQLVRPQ

[3] = biological target: T1, TAP-Upf1-CH (2-208) (S. cerevisiae); assay: affinity purification with mass spectrometry

binding [1]: no binding
B1: Ebs1 (protein, UniProt Q03466 1-884)
chain: MEPSNTQKEDLPTAFNGIKSQLNSILKSNQLFQDYALLNGFLAFVHSKLNAAILTSIESQCGKSFAADLDSFDQSSISSILDFSWESVHYPIFKWFQMWRNYILFEKENKKQQTKFIDFRKMNSKMLKFFKTVQNFYVNVINTVYKKYDISVLLPKRIIQDLKLSDIENTTNVGDILAVKTFNSSSPLAHLIPTLFHRCLLFLGTAYRYKTLLEEISNKYSISNFKKSLDFFRLASLVLPSAGETYSQAGAIFLQTGNLGIAVFNFVKGMMTKMPSPVSIKNFGALMVDNKSSLNRSLHTTIMNTYLQESKGPRTPAKEILEFYFLGLFGSVWSPTSWRDDTKPNQLNNGIKLRHLENALYETMSARYLNNIKTIFHNLIITIGGFHLLLKRRSDVSAKTLKDLRSNELDYLNFAFKYIAHILNDIVKESWSENPEVSEILGMVRIINCWIKANPMVLQYSQSNLEFVNALAYLINDIVKKKPSPSFSITEHIPKRTYWFEEDLMVKGLSFVNFQLSDFDDYEKILEMDHSLDRLIGNPPLCDKLSASSEMLLRLQAVVNISSQLLQNNNCGVEWSDNKSRYIFNKKIGFKETVKNSMKTSKQSNEKAKLQRKNKPSTTNGSISMADLERQMRSSSLDSFSPTMGYSGSSVPMAPDTFNVKPSGTITGNKVNVELLKIELSGQNADGAITNISPGYSNAAISSSNSTDESSFDLNNILSSMQQKHAEKSFAKSMQGVNEQIPANDVCHQAQRPMQGGLYSSQQPSSMSSLNSAYQNASMPPSASMVSYPYPFLNQQGQGVFPPYNAQNLQWQSEAYSLKSMNFANPTWLGDQYQTSAPSSAYAQAQRQMFQQPMQQDVGKYMQFPFDAQSNTDSMRGNSRNNMF

binding [2]: binds | binding [3]: no binding
B2: Nmd4 (protein, UniProt Q12129 1-218)
chain: MTQYNFIIDASAFEKGLGNIKRWCSDCTEAVTLNFYIPTFTLNELDFLQQRRKSFAARESLKFIDRLDDSKFANLKVFIEFPEVLDIILWSDVMEHNDSSGKINIAKLPKRLKNLLKSCIYKCYLEGNEGLHWFLISEDPQIREMAMQCNIPSCSIVDVDSILSKDMNDKSFRESEKFNNMMLKNGTKEESENGREIIRTNFNKTVYASRGTGELWSP
